Consider 59 compounds from PubChem BioAssay AID651660 (Broad Institute, 2012).

Sequences of proteins named here, by UniProt entry; tags and fusion partners are left off. A change or cut given only in a name is not applied to a line headed by its entry.
UniProt P43351: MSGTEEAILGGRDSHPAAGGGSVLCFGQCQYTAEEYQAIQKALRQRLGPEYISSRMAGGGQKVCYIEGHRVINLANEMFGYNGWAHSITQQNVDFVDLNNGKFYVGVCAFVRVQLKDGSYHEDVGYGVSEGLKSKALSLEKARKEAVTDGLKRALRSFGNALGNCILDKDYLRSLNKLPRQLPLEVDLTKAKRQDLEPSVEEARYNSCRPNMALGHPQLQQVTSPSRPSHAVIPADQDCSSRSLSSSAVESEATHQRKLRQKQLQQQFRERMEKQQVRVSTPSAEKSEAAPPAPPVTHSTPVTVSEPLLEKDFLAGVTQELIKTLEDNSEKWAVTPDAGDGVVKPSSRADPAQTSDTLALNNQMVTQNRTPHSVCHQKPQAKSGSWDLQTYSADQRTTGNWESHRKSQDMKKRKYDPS

Several values for one entry are separate records, joined by “and”; a condition that tells them apart may be missing. Identical values can stand only once. About 15 (0.8%) of roughly 1,900 compounds were called active.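 Rule for the calls: active = every replicate shows at least 50% inhibition; inconclusive = mean inhibition at least 50% but some replicate below; inactive = the rest.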 The list shows a part of the results.

In this test the target is DNA repair protein RAD52 homolog (Homo sapiens) (UniProt P43351). Description: RAD52 ssDNA annealing inhibitors, primary screen, biochemical, FRET, single point (AID 651660).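 Note: 0% = median of neutral control wells and 100% = median of positive control wells.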 As to conditions: Recombinant RAD52 ssDNA annealing, FRET fluorescence, 30 min; at 18.7 µM; active compounds read high.
As to `COc1ccc(C(=O)Oc2ccc3c(C)cc(=O)oc3c2C(C)=O)cc1`, the inhibition is inactive: -5.82%.
Under `NS(=O)(=O)c1ccc(CNC(=O)c2cc(-c3ccccc3)nc3ccccc23)cc1` stands inactive: 4.47%; under `Fc1ccc(NC(=S)Nc2ccccc2Cl)cc1`, inactive: 1.13%; under `O=C(O)C1Sc2[nH]c(=O)sc2C2c3ccc(O)cc3OC(=O)C12` (centres undefined), inactive: -468%.
The same measure for `COc1ccc(C2NC(=O)c3ccccc3N2)cc1OC` (centres undefined): inactive: -8.83%; for `COc1cc2c(cc1OC)C(=S)NC(C)(C)C2`: inactive: -8.97%.
The same measure for `CN1C(=O)C(O)(CC(=O)c2ccccc2O)c2cc(Br)ccc21` (centres undefined): inactive: -5.35%; for `O=C(/C=C/c1ccco1)N1CCN(c2ccccc2)CC1`: inactive: -28.2%; for `O=C(O)/C=C/c1ccc(O)c(O)c1`: inactive: 1.55%.
As for `O=C(Nc1ccc(Cl)cn1)Nc1ccccc1Cl`, the inhibition is inactive: -4.1%.
Under `C[N+](C)(C)CCCCCCCCCC[N+](C)(C)C` stands inactive: -12.5%.
As to `O=C(/C=C/c1ccco1)NCc1ccc2c(c1)OCO2`, the inhibition is inactive: -25.8%.
Under `CC1=CC(C)(C)N2C(=O)C3(NCCc4c3[nH]c3ccccc43)c3cc(C)cc1c32` (centres undefined) stands inactive: 15%.
Under `COc1ccc(CC(=O)N2CC3(C)CC2CC(C)(C)C3)cc1OC` (centres undefined) stands inactive: 4.24%; under `C=CCN1C(=O)c2oc3ccccc3c(=O)c2C1c1ccc(O)c(OC)c1` (centres undefined), inactive: -8.96%; under `COc1cccc2c(=O)c3ccccc3oc12`, inactive: -7.5%.
On to `CC1(C)C(=O)OC(c2cccs2)C2(CCCCC2)C1=O` (centres undefined), for which the inhibition was inactive: -4.2%.
Take `CN(C)CCN(Cc1ccccc1)c1ccccn1`: the inhibition is inactive: -8.55%.
Under `Cn1c(=O)oc2cc(S(=O)(=O)N3CCc4ccccc4C3)ccc21` stands inactive: 1.58%.
For the compound `CC(NC(=O)OCc1ccccc1)C(=O)N1CC(O)CC1C(=O)O` (centres undefined), the inhibition is inactive: -5.77%.
For `CCC[C@@H]1C[C@@H](C(=O)N[C@H]([C@@H](C)O)[C@H]2O[C@H](SC)[C@H](O)[C@@H](O)C2O)N(C)C1` (some centres undefined), the inhibition was inactive: 1.34%.
The same measure for `COc1cccc(OC)c1C(=O)Nc1nc2ccc([N+](=O)[O-])cc2s1`: inactive: -5.43%; for `CCCN(CCC)S(=O)(=O)c1ccc(C(=O)O)cc1`: inactive: 11.6%; for `CSCCC1NC2(C(=O)Nc3ccc(Cl)cc32)[C@@H]2C(=O)N(C3CCCC3)C(=O)[C@H]12` (some centres undefined): inactive: 0.369%.
With `CN1C2CCC1CC(OC(c1ccccc1)c1ccccc1)C2` (centres undefined), the inhibition is inactive: 2.64%.
Turning to `COc1ccc(C2NC(C(=O)O)Cc3c2[nH]c2ccccc32)cc1CN1CCN(c2ccc(F)cc2)CC1` (centres undefined), the inhibition was inactive: 2.77%.
The same measure for `CN1CCc2cccc3c2[C@@H]1Cc1ccc(O)c(O)c1-3`: inactive: 28.9%.
As to `CN(C)CCOC(c1ccccc1)c1ccccc1`, the inhibition is inactive: -4.29%.
With `O=C(NCc1ccco1)/C(=C\C=C\c1ccccc1)NC(=O)c1ccccc1Br`, the inhibition is inactive: -2.54%.
Under `CC(=O)N1CCN(c2ccc(OC[C@H]3CO[C@](Cn4ccnc4)(c4ccc(Cl)cc4Cl)O3)cc2)CC1` stands inactive: 19.9%.
Under `CO[C@@H]1O[C@@H]2COC(c3ccccc3)O[C@@H]2[C@@H](OC)[C@@H]1O` (some centres undefined) stands inactive: 4.91%; under `COc1ccc(S(N)(=O)=O)cc1C(N)=O`, inactive: 0.0195%.
For the compound `CC(=O)[C@H]1CC[C@H]2[C@@H]3CCC4=CC(=O)CC[C@]4(C)[C@H]3CC[C@]12C`, the inhibition was inactive: 0.0875%.
With `COC(=O)C1=CN(Cc2cccs2)C=C(C(=O)OC)C1c1cccc(Cl)c1`, the inhibition is inactive: 11.7%.
Under `CC(C)NC[C@@H](O)c1ccc(O)c(O)c1` stands inactive: -21.4%.
Under `Cc1ccc2[nH]c3c(=O)n(CCc4cnc[nH]4)cnc3c2c1` stands inactive: 6.95%.
The same measure for `CCCCCC(=O)O[C@]1(C(C)=O)CC[C@H]2[C@@H]3CCC4=CC(=O)CC[C@]4(C)[C@H]3CC[C@@]21C`: inactive: 5.7%; for `CNCCCC12CCC(c3ccccc31)c1ccccc12`: inactive: 13.6% and inactive: 16.7%; for `Oc1ccc(Oc2ncc(Cl)cc2Cl)cc1`: inactive: 5.9%.
For the compound `CCOC(=O)N1CCc2[nH]c3ccc(C)cc3c2C1`, the inhibition was inactive: -15.2%.
The same measure for `Cc1nc(N[C@@H](Cc2c[nH]c3ccccc23)C(=O)O)c2oc3ccccc3c2n1`: inactive: -19.8%; for `O=C(Oc1ccccc1)Oc1ccc2c(c1)oc(=O)c1ccccc12`: inactive: 2.77%.
The same measure for `CC(=O)N(CCC1(c2ccc(C)cc2)CCOC(C(C)C)C1)Cc1ccco1` (centres undefined): inactive: -1.21%.
`O=C(O)CCn1cnc2ccccc2c1=O`: the inhibition was inactive: 0.434%.
Under `O=C(CCCN1C(=O)/C(=C\c2cccs2)SC1=S)Nc1ccccn1` stands inactive: -23.2%; under `CC(=O)CCCCn1c(=O)c2c(ncn2C)n(C)c1=O`, inactive: -3.51%; under `O=C1CCCN1CCCn1cnc2c([nH]c3ccc(F)cc32)c1=O`, inactive: -0.473%.
For `Cc1cccc2c(=O)n3c(nc12)CCCCC3`, the inhibition is inactive: -4.57%.
Under `O=C(NCCN1CCOCC1)c1ccc(Cl)cc1` stands inactive: -3.7%; under `Cc1cc(OC(=O)CNC(=O)OC(C)(C)C)c2c(C)cc(=O)oc2c1`, inactive: -1.07%; under `COc1ccc(C(=O)CCN2CCc3cc(OC)c(OC)cc3C2)cc1`, inactive: 5.84%.
Under `COc1cc(CC(=O)NCCc2ccc(S(N)(=O)=O)cc2)cc(OC)c1OC` stands inactive: -2.62%; under `Cc1cccc(OCC(=O)Nc2ccc(C(=O)NCC(C)C)cc2)c1`, inactive: -8.4%; under `C[C@H]([C@@H](N)C(=O)N[C@@H](C(=O)O)[C@@H]1O[C@H](n2ccc(=O)[nH]c2=O)[C@@H](O)[C@H]1O)[C@@H](O)c1ccc(O)cn1`, inactive: -60.2%.
`Cc1c(OCC(=O)NC(Cc2c[nH]c3ccc(O)cc23)C(=O)O)ccc2c3c(c(=O)oc12)CCC3` (centres undefined): the inhibition is inactive: -8.05%.
Turning to `Cc1ccnc(NS(=O)(=O)c2ccc(N)cc2)n1`, the inhibition is inactive: -3.32%.
The same measure for `NC(=O)OCC(COC(N)=O)c1ccccc1`: inactive: 2.1%; for `Cc1ccc(C(=O)COC(=O)c2cccc(N3C(=O)c4c(C)nc5ccccc5c4C3=O)c2)cc1C`: inactive: -4.82%.
Take `CC1(C#CC[N+]2(C)CCCCC2)CCC2C(O1)c1ccccc1OC2(C)C` (centres undefined): the inhibition is inactive: -7.61%.

A word on the inhibition: it is the relative decrease from the control value, in per cent.
